Measured values taken from PubChem BioAssay AID540256 (National Center for Advancing Translational Sciences (NCATS), 2011).
Screen size: about 300,000 compounds; about 3,700 (1.2%) were called active. This list was built around the results that the source calls inconclusive (neither active nor inactive); the mix of calls is not that of the screen. Calls follow the shape of the full dose curve; tested in HEK293 cells. Potencies of inconclusive entries are doubtful fits and often do not repeat.

assay: qHTS for Inhibitors of binding or entry into cells for Lassa Virus; details: Lassa virus pseudotype entry inhibition, cell reporter; activity change, negative = inhibition: at 37.9 µM (top of the series) unless noted; also: nearly all actives have a fitted effect of over 50% in size
% is scaled to controls: 0 for no effect and ±100 for the full control effect; potency is read from the fitted curve at half-maximal effect.

Row | SMILES | Potency | activity change, negative = inhibition
1 | COc1ccc(CN2CCOCCOCCN(Cc3ccc(OC)cc3)CCOCCOCC2)cc1 | inconclusive: 11.2 µM [inhibitor, partial curve, poor fit] | 
2 | Cc1ccccc1Nc1nc(N)nc(COC(=O)c2ccccc2)n1 | inconclusive: 5.8 µM [inhibitor, partial curve, poor fit] | 
3 | COc1ccccc1OCC#CCNC1CCCCC1C (stereo not given) |  | inactive: 28.4%
4 | O=C(c1cc(COc2ccc(F)cc2Cl)on1)N1CCC(c2ccncc2)CC1 | inconclusive: 12.6 µM [inhibitor, partial curve, poor fit] | 
5 | COc1cccc(C(=O)NC(C)c2cccc3ccccc23)c1OC (stereo not given) | inconclusive: 35.5 µM [inhibitor, single point] | 
6 | C[N+]1(C)CCc2cc3c(cc2[C@H]1[C@@H]1OC(=O)c2c1ccc1c2OCO1)OCO3 | inconclusive: 0.651 µM [inhibitor, full curve, poor fit] | 
7 | CCC(=NC)C1=C(O)CC(c2ccccc2)CC1=O (stereo not given) | inconclusive: 2.24 µM [inhibitor, partial curve, poor fit] | 
8 | O=C(/C=C(\O)c1ccccc1)C(=O)NNC(=O)c1ccccc1[N+](=O)[O-] |  | inactive: -9.26% [at 46.1 µM]
9 | COc1ccccc1CNC(=O)c1ccc2nc3[nH]c4ccccc4c3nc2c1 | inconclusive: 22.4 µM [inhibitor, single point] | 
10 | N/C(=N\OC(=O)c1cccc(Cl)c1)c1ccccn1 | active: 7.94 µM | 
11 | COc1ccc(CC(=O)n2[nH]c(=O)ccc2=O)cc1OC | inconclusive: 5.62 µM [activator, partial curve, poor fit] | 
12 | Cc1cc2ccccc2n2c(SCC(=O)Nc3ccc(S(=O)(=O)N4CCCCC4)cc3)nnc12 | inconclusive: 14.1 µM [inhibitor, partial curve, poor fit] | 
13 | Cc1ccc2c(c1)c1ncnc(N3CCN(c4ccccc4)CC3)c1n2C | inconclusive: 31.6 µM [inhibitor, single point] | 
14 | COc1ccc(NC(=O)Nc2ccc(F)cc2F)cc1 | inconclusive: 2.82 µM [activator, full curve, poor fit] | 
15 | CSc1nc(C)c(CCOC(=O)c2cccc(Cl)c2)c(=O)[nH]1 |  | inactive: -1.64%
16 | Cc1cc(O)c(CN2CCN(c3ccccc3)CC2)cc1C |  | inactive: -2.06%
17 | CC(C)NC(=S)N/N=C/c1cccnc1 | inconclusive: 12.6 µM [inhibitor, partial curve, poor fit] | 
18 | c1ccc(-c2cc(-c3ccc(N4CCOCC4)cc3)nc3ccccc23)cc1 | inconclusive: 3.98 µM [inhibitor, partial curve, poor fit] | 
19 | CCOc1ccc(NC(=S)Nc2cc(OC)c(Cl)cc2OC)cc1 |  | inactive: -9.13%
20 | c1cc(CNc2ccc3c(c2)OCCO3)ccn1 | inconclusive: 11.2 µM [activator, partial curve] | 
21 | COc1ccc2sc(N(CCCN(C)C)C(=O)c3ccc(C(=O)c4ccccc4)cc3)nc2c1 | inconclusive: 35.5 µM [inhibitor, single point] | 
22 | COc1ccc(NC(=O)C(=O)NCC(c2ccco2)N2CCc3ccccc32)cc1 (stereo not given) | inconclusive: 0.562 µM [inhibitor, full curve] | 

Rewritten in CSV form: entries from further up.
Row,SMILES,Potency,"activity change, negative = inhibition"
7,CCC(=NC)C1=C(O)CC(c2ccccc2)CC1=O (stereo not given),"inconclusive: 2.24 µM [inhibitor, partial curve, poor fit]",
8,O=C(/C=C(\O)c1ccccc1)C(=O)NNC(=O)c1ccccc1[N+](=O)[O-],,inactive: -9.26% [at 46.1 µM]
9,COc1ccccc1CNC(=O)c1ccc2nc3[nH]c4ccccc4c3nc2c1,"inconclusive: 22.4 µM [inhibitor, single point]",

Continuation:

Row | SMILES | Potency | activity change, negative = inhibition
23 | CC(C)(C)c1ccc(C(=O)N2CCN(CCNC(=O)C(=O)NCc3ccc(Cl)cc3)CC2)cc1 | inconclusive: 10 µM [inhibitor, partial curve, poor fit] | 
24 | CCOC(=O)c1c(-c2ccc(C)cc2)csc1NC(=O)CCSc1nnc2ccccn12 | inconclusive: 2 µM [inhibitor, single point] | 
25 | O=C(NCCc1csc(-c2ccc(F)cc2)n1)c1c(F)cccc1Cl | inconclusive: 7.08 µM [inhibitor, partial curve] | 
26 | CN(c1ccccc1)C1CCCCC1NS(=O)(=O)c1ccc(Cl)cc1 (stereo not given) | inconclusive: 16.4 µM [inhibitor, partial curve, poor fit] | 
27 | CCOc1ccc(-n2c(SCC(=O)NC)nnc2-c2ccco2)cc1 |  | inactive: 1.46%
28 | CN(C(=O)CSc1nc2ccccc2n1Cc1cccc(C(F)(F)F)c1)c1ccccc1 | inconclusive: 7.08 µM [inhibitor, partial curve, poor fit] | 
29 | CC1=Nc2ccc(C)c3nc(C)cc(c23)N1c1ccc(C)cc1 | inconclusive: 0.631 µM [inhibitor, partial curve, poor fit] | 
30 | CCCCCn1c(=O)c(C(=O)NCc2ccncc2)c(O)c2ccccc21 | inconclusive: 35.5 µM [inhibitor, single point] | 
31 | COc1ccc(-n2nc(C(=O)NCC(=O)Nc3cc(Cl)c(OC)cc3OC)c3ccccc3c2=O)cc1 |  | inactive: -1.67%
32 | Cc1cc(C)c(S(=O)(=O)NCCc2ccccc2)c(C)c1 | inconclusive: 35.5 µM [inhibitor, single point] | 
33 | c1ccc(C(c2ccccc2)c2noc(CN3CCC(c4ccncc4)CC3)n2)cc1 | inconclusive: 10 µM [inhibitor, partial curve, poor fit] | 
34 | O=C(Cc1cccs1)Nc1ccccc1NC(=O)Cc1cccs1 |  | inactive: 8.09%
35 | O=C(Nc1scc(-c2ccccc2)c1C(=O)O)c1ccco1 |  | inactive: 0.0121%
36 | O=C(Nc1ccc(S(=O)(=O)NCc2ccccc2)cc1)Nc1ccc2c(c1)OCO2 |  | inactive: 42.7% [at 14.3 µM]
37 | COc1cc(CCN2C(=O)NC(c3cccc(C(F)(F)F)c3)C(C(C)=O)=C2C)cc(OC)c1OC (stereo not given) |  | inactive: 1.12% [at 14.3 µM]
38 | CCOc1ccc(C2=CC(c3cc(Br)ccc3F)n3ncnc3N2)cc1Cl (stereo not given) | inconclusive: 10 µM [inhibitor, partial curve, poor fit] | 
39 | CCOc1ccc(S(=O)(=O)N(C(=O)c2ccncc2)c2ccc3oc(C)c(C(=O)OC)c3c2)cc1 | inconclusive: 35.5 µM [inhibitor, single point] | 
40 | O=C(c1ccc(S(=O)(=O)Cc2cc(F)ccc2F)c([N+](=O)[O-])c1)N1CCCCC1 |  | inactive: -3.31%
41 | O=C(CCS(=O)(=O)c1ccc(Cl)cc1)Nc1cccc(S(=O)(=O)N2CCCCCC2)c1 | inconclusive: 3.98 µM [inhibitor, partial curve, poor fit] | 
42 | Cc1ccc(N(CN2CCCC2=O)C(=O)c2ccc(C)c(C)c2)cc1 |  | inactive: -1.41%
43 | Cn1c(CCCNC(=O)c2ccccc2)nc2ccccc21 |  | inactive: -1.51%
44 | COc1cc(N=Nc2ccc(C)cc2S(N)(=O)=O)c(C)cc1N | inconclusive: 7.94 µM [inhibitor, partial curve, poor fit] | 

Row | SMILES | Potency | activity change, negative = inhibition
45 | COc1ccc(CCN2CC(C(=O)N3CCSCC3)CCC2=O)cc1 (stereo not given) | inconclusive: 20 µM [activator, single point] | 
46 | COc1ccccc1/C=C/C(=O)Nc1cccnc1 | inconclusive: 6.31 µM [activator, single point] | 
47 | O=C(CN1CCN(C(=O)C2CCCO2)CC1)Nc1c(Cl)cccc1Cl (stereo not given) | inconclusive: 1.26 µM [activator, single point] | 
48 | CCn1nnc(NC(=O)c2sc3ccccc3c2Cl)n1 | inconclusive: 35.5 µM [inhibitor, single point] | 
49 | COc1ccc(CCNC(=O)COc2ccc(S(=O)(=O)NCC(C)C)cc2Cl)cc1OC | inconclusive: 5.62 µM [activator, single point] | 
50 | CN1CCN(C(=O)CSc2nc(-c3cccs3)cc(-c3cccs3)c2C#N)CC1 | inconclusive: 29.1 µM [inhibitor, single point] | 
51 | Cc1cc(/C=C2/C(=O)N(C)C(=S)N2C)ccc1N1CCCC1 |  | inactive: -11.1%
52 | O=C1NC(=Nc2ccccc2)S/C1=C\c1cccn1-c1ccccc1 | inconclusive: 5.62 µM [inhibitor, full curve, poor fit] | 
53 | COc1ccccc1N1CCN(C(=O)c2ccc(CSc3ccccc3)cc2)CC1 | inconclusive: 29.1 µM [inhibitor, single point] | 
54 | CN(Cc1ccccc1)C(=O)C1CCCN(Cc2ccc(Cl)cc2)C1 (stereo not given) | inconclusive: 12.6 µM [inhibitor, single point] | 
55 | Cc1nn(C/C(C#N)=N\O)c(C)[n+]1N | inconclusive: 0.259 µM [activator, single point] | 
56 | CC(=O)c1c(C)[nH]c(C(=O)COC(=O)CCOc2ccc(C)cc2)c1C | inconclusive: 0.1 µM [inhibitor, full curve, poor fit] | 
57 | COc1ccc(-n2c(SCCNCCO)nc3sc4c(c3c2=O)CCCC4)cc1 | inconclusive: 25.1 µM [inhibitor, single point] | 
58 | COc1ccc(-c2cc(C(=O)NCc3cccnc3)no2)cc1 | inconclusive: 6.51 µM [activator, single point] | 
59 | COc1cccc(C(=O)NCCCNC(=O)c2cccc(OC)c2)c1 | inconclusive: 3.16 µM [activator, single point] | 
60 | Cc1cc(C)c(S(=O)(=O)N2CCN(C(=O)c3ccccc3OCc3c(C)noc3C)CC2)c(C)c1 | inconclusive: 17.8 µM [inhibitor, single point] | 
61 | CC(=O)Nc1ccc(S(=O)(=O)N(C)CCOCc2ccccc2)cc1 | inconclusive: 22.4 µM [inhibitor, single point] | 
62 | CCOc1cc(-c2cc(-c3ccccc3)nc(N)c2C#N)ccc1O | inconclusive: 8.2 µM [inhibitor, partial curve, poor fit] | 
63 | CCCCCC(O)CCC(=O)NNC1=CC(=O)CC(C)(C)C1 (stereo not given) | inconclusive: 0.282 µM [inhibitor, partial curve, poor fit] | 
64 | Cc1sc2ncnc(N3CCC(C(=O)NCC(=O)Nc4ccc(F)c(F)c4)CC3)c2c1C | inconclusive: 35.5 µM [inhibitor, single point] | 
65 | O=C(CCc1ccc(S(=O)(=O)N2CCOCC2)cc1)Nc1nc(COc2ccccc2)cs1 |  | inactive: -19.6%

Single records, as listed above:
O=C(CCc1ccc(S(=O)(=O)N2CCOCC2)cc1)Nc1nc(COc2ccccc2)cs1 reads activity change, negative = inhibition: inactive: -19.6%
COc1ccc(-n2nc(C(=O)NCC(=O)Nc3cc(Cl)c(OC)cc3OC)c3ccccc3c2=O)cc1 reads activity change, negative = inhibition: inactive: -1.67%
